Our source for the binding values is paper PMC11870507.

Chains of the proteins cited; added tags and fusions are not shown. Lines headed by an entry give the natural chain unless they say otherwise; changes in a name come on top.
UniProt K4DBH0: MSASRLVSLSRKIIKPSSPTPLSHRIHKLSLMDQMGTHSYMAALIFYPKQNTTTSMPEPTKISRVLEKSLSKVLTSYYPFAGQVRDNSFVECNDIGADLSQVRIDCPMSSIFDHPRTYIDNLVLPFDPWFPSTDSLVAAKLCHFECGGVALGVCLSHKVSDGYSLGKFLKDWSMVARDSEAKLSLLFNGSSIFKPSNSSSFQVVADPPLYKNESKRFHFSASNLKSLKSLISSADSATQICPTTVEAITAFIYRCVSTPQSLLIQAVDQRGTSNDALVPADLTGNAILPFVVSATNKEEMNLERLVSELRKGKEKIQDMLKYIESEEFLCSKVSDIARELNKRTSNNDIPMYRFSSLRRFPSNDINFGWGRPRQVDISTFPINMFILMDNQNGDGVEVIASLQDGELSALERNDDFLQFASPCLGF
UniProt A0A3Q7EQZ9: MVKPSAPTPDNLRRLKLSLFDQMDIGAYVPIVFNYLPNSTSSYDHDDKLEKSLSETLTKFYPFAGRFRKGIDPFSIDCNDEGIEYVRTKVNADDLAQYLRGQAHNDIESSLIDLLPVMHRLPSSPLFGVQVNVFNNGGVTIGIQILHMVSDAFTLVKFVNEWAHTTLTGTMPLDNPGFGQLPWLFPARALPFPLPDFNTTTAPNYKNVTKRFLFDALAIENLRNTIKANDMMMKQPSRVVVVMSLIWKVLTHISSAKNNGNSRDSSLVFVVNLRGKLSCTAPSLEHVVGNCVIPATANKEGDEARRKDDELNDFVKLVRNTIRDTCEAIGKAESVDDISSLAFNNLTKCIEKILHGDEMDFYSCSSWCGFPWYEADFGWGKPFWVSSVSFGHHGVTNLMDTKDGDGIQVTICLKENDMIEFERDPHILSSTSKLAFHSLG
UniProt K4D9Y4: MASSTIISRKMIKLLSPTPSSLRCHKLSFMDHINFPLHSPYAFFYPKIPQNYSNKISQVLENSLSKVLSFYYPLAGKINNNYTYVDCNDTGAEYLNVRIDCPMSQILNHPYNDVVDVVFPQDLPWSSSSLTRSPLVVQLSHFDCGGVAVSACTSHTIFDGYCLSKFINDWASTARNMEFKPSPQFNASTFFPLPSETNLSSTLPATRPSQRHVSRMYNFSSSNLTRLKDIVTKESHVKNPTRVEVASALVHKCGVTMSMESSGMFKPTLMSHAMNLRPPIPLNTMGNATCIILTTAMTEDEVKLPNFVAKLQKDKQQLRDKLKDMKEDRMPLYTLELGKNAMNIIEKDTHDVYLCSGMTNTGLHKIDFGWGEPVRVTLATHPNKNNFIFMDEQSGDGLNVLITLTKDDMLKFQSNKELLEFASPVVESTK
UniProt A0A0U3JNE4: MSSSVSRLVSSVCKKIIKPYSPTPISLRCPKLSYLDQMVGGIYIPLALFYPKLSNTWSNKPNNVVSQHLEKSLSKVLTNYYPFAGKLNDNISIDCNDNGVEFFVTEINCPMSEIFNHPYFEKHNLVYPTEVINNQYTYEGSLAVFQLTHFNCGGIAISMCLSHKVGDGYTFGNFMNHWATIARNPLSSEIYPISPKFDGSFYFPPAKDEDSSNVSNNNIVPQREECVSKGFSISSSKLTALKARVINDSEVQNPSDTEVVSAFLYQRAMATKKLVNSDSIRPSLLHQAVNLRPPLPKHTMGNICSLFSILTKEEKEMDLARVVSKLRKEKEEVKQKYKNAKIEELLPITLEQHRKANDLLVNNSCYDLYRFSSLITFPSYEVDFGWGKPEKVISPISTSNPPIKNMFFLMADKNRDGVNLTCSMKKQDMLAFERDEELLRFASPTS

Test [1] deals with HA-tagged SlASAT1 (Solanum lycopersicum (tomato)) (UniProt K4DBH0). Kind of test: co-IP + affinity purification with mass spectrometry; HA-SlASAT1, Flag-SlASAT4 and untagged SlASAT2 and SlASAT3 co-expressed in N. benthamiana leaves; IP with anti-HA or anti-Flag magnetic beads; confirmed by western blot, then proteomics (DIA-PASEF). A general note: In western blotting, separated proteins are transferred to a membrane and probed.

For test [2], the target named is Flag-tagged SlASAT4 (Solanum lycopersicum (tomato)). The test is described as above.
For test [3] the target is unchanged. Nature of the test: affinity purification with mass spectrometry; proteomics of all proteins co-immunoprecipitated with the pull-down of Flag-SlASAT4 from N. benthamiana leaves expressing SlASAT1-4, high detergent stringency, empty vector HA/Flag as control, peptides mapped to the N. benthamiana proteome.

Results are given in words; binding and its absence hold for the method and conditions named. Binding seen in cells or lysates may run through a third protein. A yes stands for co-enrichment or nearness to the bait. Other partners may have been found.

“Flag-tagged SlASAT4 (from UniProt A0A3Q7EQZ9) (enzyme)”: the binding entry in test [1] is “binds”.
As to “HA-tagged SlASAT1 (from UniProt K4DBH0) (enzyme)”, in test [2], the binding entry is “binds”.
As for “untagged SlASAT3 (from UniProt K4D9Y4) (enzyme)”, the binding result in test [2] and in test [1] was “binds” in each case.
“untagged SlASAT2 (from UniProt A0A0U3JNE4) (enzyme)”: the binding entry in test [2] and in test [1] was “binds” in each case.

B1: NbRanBP1-1a (protein, UniProt A0A387K1P8 1-216)
chain: MASSGEPELEKKEVEEEVVEENPSAAADDEDTGAQVAPIVKLQEVSVSTGEENEDVLLDLKSKLYRFDKEGNAWKERGAGTVKLLKHKETGKVRLVMRQSKTLKICANHLVLPTMSIQEHAGNEKSCVWHAADFADGELKEETFCIRFASIENCKSFKEKVEEIAESQQTKSEESEGAVAAATELIEKLSVESKDKEDKPEGKEAPAKTEENVEKN
As to B1, the binding entry in test [3] is recorded as “binds”.
